Our source for the binding values is patent US20040013664A1.

By UniProt entry, the sequences of proteins in these tests, tags left out. Residues count along the entry.
UniProt P48023, residues 130-281: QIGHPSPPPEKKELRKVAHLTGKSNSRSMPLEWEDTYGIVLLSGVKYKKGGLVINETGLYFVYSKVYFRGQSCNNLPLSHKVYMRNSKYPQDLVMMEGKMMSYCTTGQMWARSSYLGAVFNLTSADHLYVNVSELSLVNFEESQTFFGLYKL
UniProt P25445, residues 26-169: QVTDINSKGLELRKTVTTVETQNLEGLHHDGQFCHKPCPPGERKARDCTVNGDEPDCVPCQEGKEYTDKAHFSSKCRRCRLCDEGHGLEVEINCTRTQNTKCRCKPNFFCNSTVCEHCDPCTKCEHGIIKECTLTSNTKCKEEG
UniProt O95150, residues 72-251: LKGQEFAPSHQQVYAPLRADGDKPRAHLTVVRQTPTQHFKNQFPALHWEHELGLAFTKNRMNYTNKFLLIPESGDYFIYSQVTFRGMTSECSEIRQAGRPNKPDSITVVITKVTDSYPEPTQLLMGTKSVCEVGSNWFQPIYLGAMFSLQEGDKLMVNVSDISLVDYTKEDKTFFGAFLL

Assay [1] addresses FLAG-FasL (aa 130-281) (human) (UniProt P48023). Nature of the assay: coimmunoprecipitation with protein A-Sepharose, anti-Flag western blot.
Assay [2] concerns the target T1, Full length DR3 on cells (human) (UniProt Q93038).
T1 sequence (looked up): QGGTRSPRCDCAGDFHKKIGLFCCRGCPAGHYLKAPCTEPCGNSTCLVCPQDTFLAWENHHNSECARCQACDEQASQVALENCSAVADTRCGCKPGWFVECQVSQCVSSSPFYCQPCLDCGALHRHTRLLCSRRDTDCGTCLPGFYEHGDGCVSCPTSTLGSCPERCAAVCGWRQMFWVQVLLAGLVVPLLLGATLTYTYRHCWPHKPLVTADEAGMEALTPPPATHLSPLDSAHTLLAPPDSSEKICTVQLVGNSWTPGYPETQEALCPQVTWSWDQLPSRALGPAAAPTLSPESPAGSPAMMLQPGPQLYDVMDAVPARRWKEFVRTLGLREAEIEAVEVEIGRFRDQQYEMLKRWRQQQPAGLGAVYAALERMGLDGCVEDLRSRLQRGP
Nature of the assay: flow cytometry on transiently transfected cells.

These are yes or no findings as the source states them, for the method shown. For some assays here: In cells and extracts the contact can be indirect. Some binding calls cover weakened binding; strength is not graded here.

On to “Human Fas(M1-G169)-Fc fusion protein (from UniProt P25445 26-169)”, for which, in assay [1], the binding entry is given as “binds”.

Turning to “FLAG-tagged soluble TNF-gamma-beta (aa 72-251) (from UniProt O95150 72-251) (ligand)”, the binding entry in assay [2] was “binds”.
